Where a name gives a salt, the structure may show the parent alone. ± gives the standard deviation of the averaged measurements. The list shows a part of the results. Part of the spread comes from offsets between plates or batches.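 The cells are a mouse kidney inner medullary collecting duct line, silenced either for the ciliary gene Rpgrip1l or with a non-targeting control siRNA.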
Test system: mIMCD3
Assay: robust z score of cilia incidence (% cells with single cilium) vs plate controls; higher = more ciliated cells
Details: 10 µM; 48 h; siRNA: siScr

Row | SMILES | robust z score of cilia incidence
1 | CCCC(=O)Nc1ncnc2c1ncn2[C@@H]1O[C@@H]2COP(=O)(O)O[C@H]2[C@H]1OC(=O)CCC [Dibutyryl-cAMP, sodium salt] | 1.18 ± 1.1
2 | CCCCCCCCCCC[C@@H](C[C@@H]1OC(=O)[C@H]1CCCCCC)OC(=O)[C@H](CC(C)C)NC=O [Orlistat] | -10.8 ± 11
3 | Cc1nn(C)c2nc(NNC(=O)Nc3cc(Cl)nc(Cl)c3)cc(C(C)C)c12 | -10.8 ± 7.6
4 | Cc1cc(F)c(Nc2ncnc3cc(OCc4ccccc4)ccc23)cc1O | -64.7 ± 10
5 | Cc1cc(C(=O)O)sc1C(N)C(=O)O (stereo not given) | 1.04 ± 1.6
6 | CN1CCC(=C2c3ccccc3CC(=O)c3sccc32)CC1 [Ketotifen fumarate] | -8.04 ± 5.2
7 | C[C@@H](N)[C@H]1CC[C@H](C(=O)Nc2ccncc2)CC1 | -8.2 ± 7.1
8 | CCCCC#Cc1nc(NC)c2ncn([C@@H]3O[C@H](CO)[C@@H](O)[C@H]3O)c2n1 | 3.59 ± 2.4
9 | CC(C)C1C2CCC(C2)C1N (stereo not given) | 0.404 ± 0.99
10 | Cc1ccc(Sc2cncc3sc(C(N)=O)cc23)cc1 | -7.29 ± 1.9
11 | CCN(CC)CCCCNc1ncc2cc(-c3c(Cl)cccc3Cl)c(NC(=O)NC(C)(C)C)nc2n1 | -69.5 ± 24
12 | O=S(=O)(NCCNC/C=C/c1ccc(Br)cc1)c1cccc2cnccc12 [H 89 dihydrochloride] | -8.91 ± 5.8
13 | CC1(C)O[C@@H]2[C@@H](CO[C@@]3(COS(N)(=O)=O)OC(C)(C)O[C@@H]23)O1 [Topiramate] | 0.335 ± 0.22
14 | OCc1cc(C(O)CNCCCCCCOCCCCc2ccccc2)ccc1O (stereo not given) [Salmeterol] | -11.8 ± 5.3
15 | COc1ccc(CC(=O)NC(/N=C(\NC#N)Nc2cccc3ncccc23)C(C)(C)C)cc1OC (stereo not given) | -12.1 ± 18

Molecules above that contain a tert-butyl group:
Row | SMILES | robust z score of cilia incidence
11 | CCN(CC)CCCCNc1ncc2cc(-c3c(Cl)cccc3Cl)c(NC(=O)NC(C)(C)C)nc2n1 | -69.5 ± 24
15 | COc1ccc(CC(=O)NC(/N=C(\NC#N)Nc2cccc3ncccc23)C(C)(C)C)cc1OC (stereo not given) | -12.1 ± 18
